# Results: publication PMC7862700
# The list shows a part of the results, in another mix than the full data. At the low end of the ranking the order means little.
# Target: SPI1 (UniProt P17947)
# Assay: DAPPL (digital affinity profiling via proximity ligation, sequencing)
# Conditions: 10 mM Tris-HCl pH 7.5, 50 mM NaCl, 1 mM DTT, 4% glycerol, room temperature, 30 min; GST-TFs on glutathione beads, 16-mer random dsDNA library, 0.1% …; high values mean tight binding; double strand, one strand shown; scale: fold enrichment (6-mer frequency, TF over GST control)
row,Sequence,binding signal
1,GTGTTG,0.842
2,ACGTCA,0.971
3,CCTTCA,1.36
4,TCACCA,1.21
5,CGCGAT,1.09
6,GCGAAC,0.999
7,CTGTCC,1.25
8,TAAGGA,0.978
9,CCGGTT,2.11
10,GGCACC,0.777
11,TAAACC,1.19
12,GACCAA,0.887
13,GATTTA,0.962
14,CACACC,0.946
15,TGGCCA,1.05
16,TAGGAT,0.925
17,AACCAC,1.12
18,AGGATT,0.85
19,CCAGAA,0.958

row,Sequence,binding signal
1,AGAATG,1.01
2,ACAGTT,0.775
3,ACTGTA,1.09
4,GGACAT,1.13
5,CGCGCA,0.912
6,CGAACG,0.891
7,GTATCG,0.786
8,GCGTCA,0.977
9,GCGTTT,1.05
10,TTCTAA,1.14
11,ATAGTG,0.862
12,GAATGG,0.98
13,CTGCGC,1.31
14,CTATTT,1.76
15,TAAGAG,0.857
16,CATAAA,0.992
17,CTGGAA,1.26
18,GAAAGC,0.884
19,TAAGAC,0.902
